# Test results published in the supplement of paper PMC8256030.
# Some of the results follow. This data set is noisy: repeats of one test often differ as much as different tests do.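 HEK293T cells were given each compound shortly before transfection with a reporter in which red mCherry is followed by the SARS-CoV-2 frameshift element and then GFP in the −1 frame, so GFP appears only after frameshifting.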
# Legend:
# [1] = system: SARS-CoV-2 -1 PRF reporter mCherry-FSE-GFP(-1); experiment: mCherry (red) intensity as percent of control; higher = higher upstream reporter expression; details: 10 µM; 24 h; HEK293T
# [2] = system: SARS-CoV-2 -1 PRF reporter mCherry-FSE-GFP(-1); experiment: percent effect, decrease of GFP/mCherry ratio (-1 PRF reporter) relative to controls; higher = stronger frameshift inhibition; details: 10 µM; 24 h; HEK293T
compound,measurement,setting,value
NC1=N[C@H](O)[C@H]2[C@H]3O[C@]4(O)O[C@@H]([C@@H](O)[C@@]2(N1)[C@@H]4O)[C@]3(O)CO [tetrodotoxin],mCherry,[1],71.5%
same,percent effect,[2],2.76%
